Consider three compounds from patent US20150126546A1, “Treatment of Cognitive Disorders with Certain Alpha-7 Nicotinic Acid Receptors in Combination with Acetylcholinesterase Inhibitors” (Forum Pharmaceuticals, Inc., priority 2009, published 2015).

Counter-ions that a name gives are not always drawn.

This data set has as its system 5-month-old male Wistar rats. In words: Object recognition task after scopolamine treatment. The data set is classed as in vivo. As to conditions: scopolamine 0.1 mg/kg i.p., donepezil 0.1 mg/kg p.o., EVP-6124 0.03 mg/kg p.o., all 30 min before T1, n = 23; for Mean values (±SEM) of total exploration time during the second trial (e2): 1 h delay. The source says:
The object recognition task allows the assessment of consolidation of (object) information into memory (Ennaceur and Delacour, 1988; Prickaerts et al., 1997). In this task a rat is given two trials. In the first trial the rat is put into an arena in which two identical objects are placed. Usually, a rate will inspect the two objects for a certain amount of time. After a certain delay, the rat is given a second trial. In this trial the rat is again placed in the same arena but one of the objects has been replaced by a novel object. Similar to the first trial the rat again explores the two objects. The amount of time exploring each object is recorded in order to determine whether the rat spent a different amount of time exploring the two objects. On basis of this scoring the memory performance can be determined.
All drugs were given 30 minutes before the first trial.
All experimental procedures were approved by the local ethical committee of the Maastricht University for animal experiments and met governmental guidelines. Twenty-four 5-month-old male Wistar rats (Harlan, The Netherlands) were used (average body weights: 465 g). […] The animals were individually housed in standard type 3 Makrolon cages on sawdust bedding in an air-conditioned room (about 20° C.). They were kept under a 12/12-hour light/dark cycle (lights on from 19.00 to 7.00 h) and had free access to food and water. Rats were housed in the same room as where the animals were tested. A radio, which was playing softly, provided background noise in the room. All testing was done between 9.00 and maximally 18.00 h.
EVP-6124 was dissolved in H2O. The solution was prepared daily and tested at a dose of 0.03 mg/kg p.o. (injection volume 2 ml/kg). […] Donepezil was dissolved in saline. The solution was prepared daily and tested at a dose of 0.1 mg/kg p.o. (injection volume 2 ml/kg). Administration was always 30 min before trial 1 immediately after (R)-7-chloro-N-(quinuclidin-3-yl)benzo[b]thiophene-2-carboxamide.
Subsequently donepezil, (R)-7-chloro-N-(quinuclidin-3-yl)benzo[b]thiophene-2-carboxamide and the combination of both were tested (n=8 per condition per day of testing). All rats were treated once with each dose condition. […] The experimentator was unaware of the condition/drugs being tested.
The object recognition test was performed as described elsewhere (Ennaceur and Delacour, 1988). The apparatus consisted of a circular arena, 83 cm in diameter. Half of the 40 cm high wall was made of gray polyvinyl chloride, the other half of transparent polyvinyl chloride. The light intensity was equal in the different parts of the apparatus. Two objects were placed in a symmetrical position about 10 cm away from the gray wall. Each object was available in triplicate. The objects were: 1) a cone consisting of a gray polyvinyl chloride base (maximal diameter 18 cm) with a collar on top made of brass (total height 16 cm), 2) a standard 1 l brown transparent glass bottle (diameter 10 cm, height 22 cm) filled with water, 3) a massive metal cube (10.0×5.0×7.5 cm) with two holes (diameter 1.9 cm), and 4) a massive aluminum cube with a tapering top (13.0×8.0×8.0 cm). A rat could not displace the objects. Fluorescent red tubes and a light bulb provided a constant illumination of about 20 lux on the floor of the apparatus.
A testing session comprised two trials. The duration of each trial was 3 min. During the first trial (T1) the apparatus contained two identical objects (samples). […]

With `COc1cc2c(cc1OC)C(=O)C(CC1CCN(Cc3ccccc3)CC1)C2` (centres unmarked) [donepezil, 1-benyzl-4-[(5,6-dimethoxy-1-indanon)-2-yl]methylpiperidine monohydrochloride], the “Mean values (±SEM) of total exploration time during the second trial (e2)” value (“Mean values (±SEM) … (e2)” for short) was 21.38 (1.45) s and the “Mean values (±SEM) of total exploration time during the first trial (e1)” value is listed as 20.80 (1.75) s.

Regarding `O=C(N[C@H]1CN2CCC1CC2)c1cc2cccc(Cl)c2s1` [EVP-6124, (R)-7-chloro-N-(quinuclidin-3-yl)benzo[b]thiophene-2-carboxamide], the “Mean values (±SEM) … (e2)” value was 22.98 (1.67) s and the “Mean values (±SEM) of total exploration time during the first trial (e1)” value is listed as 21.08 (1.46) s.

`CN1[C@@H]2C[C@@H](OC(=O)[C@H](CO)c3ccccc3)C[C@H]1[C@@H]1O[C@@H]12` [scopolamine]: the “Mean values (±SEM) … (e2)” value is 21.65 (1.76) s.
